Results are given in words; binding and its absence hold for the method and conditions named. Binding seen in cells or lysates may run through a third protein. Some results given as binding are weak or reduced against the parent protein; the word gives no strength.
Experiments:
[1] = molecular target: T1, VLA-4 (very late antigen-4, α4β1 integrin), human (human) (UniProt P13612+P05556); assay: GST pull-down on glutathione beads from HMEC-1 cell lysate, immunoblot
[2] = molecular target: vascular endothelial growth factor receptor-2 (VEGFR2), human (human) (UniProt P35968); assay: as above
[3] = molecular target: T1, VLA-4 (very late antigen-4, α4β1 integrin), human (human); assay: GST pull-down on glutathione beads from CAG myeloma cell lysate, immunoblot
[4] = molecular target: vascular endothelial growth factor receptor-2 (VEGFR2), human (human) (UniProt P35968); assay: as above

Sequences of proteins named here, by UniProt entry; tags and fusion partners are left off. A change or cut given only in a name is not applied to a line headed by its entry. Residues count along the entry.
UniProt P13612: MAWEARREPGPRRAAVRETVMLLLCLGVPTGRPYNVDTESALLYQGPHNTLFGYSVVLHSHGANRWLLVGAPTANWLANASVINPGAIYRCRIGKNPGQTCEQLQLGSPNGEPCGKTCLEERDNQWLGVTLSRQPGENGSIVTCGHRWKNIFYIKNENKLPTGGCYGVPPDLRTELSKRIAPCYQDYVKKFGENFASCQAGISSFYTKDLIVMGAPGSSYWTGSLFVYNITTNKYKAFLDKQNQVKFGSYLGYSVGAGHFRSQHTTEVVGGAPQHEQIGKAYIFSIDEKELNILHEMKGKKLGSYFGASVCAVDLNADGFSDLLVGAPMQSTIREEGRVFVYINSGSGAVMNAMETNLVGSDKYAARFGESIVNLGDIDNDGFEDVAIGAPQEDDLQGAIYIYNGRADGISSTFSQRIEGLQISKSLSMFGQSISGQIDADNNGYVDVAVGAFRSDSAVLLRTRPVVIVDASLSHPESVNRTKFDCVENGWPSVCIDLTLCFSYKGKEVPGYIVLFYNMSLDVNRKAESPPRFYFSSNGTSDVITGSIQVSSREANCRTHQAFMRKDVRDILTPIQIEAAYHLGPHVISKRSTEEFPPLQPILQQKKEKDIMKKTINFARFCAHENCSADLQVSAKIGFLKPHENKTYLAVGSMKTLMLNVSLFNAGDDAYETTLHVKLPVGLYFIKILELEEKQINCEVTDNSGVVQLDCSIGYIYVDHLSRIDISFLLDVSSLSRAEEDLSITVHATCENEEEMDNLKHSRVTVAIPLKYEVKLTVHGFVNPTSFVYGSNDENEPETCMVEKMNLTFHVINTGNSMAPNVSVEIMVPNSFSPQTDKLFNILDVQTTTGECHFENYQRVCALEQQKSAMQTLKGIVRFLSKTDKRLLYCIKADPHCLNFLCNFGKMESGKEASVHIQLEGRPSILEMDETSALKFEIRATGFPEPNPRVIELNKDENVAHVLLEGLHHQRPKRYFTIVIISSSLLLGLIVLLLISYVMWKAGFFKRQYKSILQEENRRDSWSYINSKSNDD
UniProt P05556: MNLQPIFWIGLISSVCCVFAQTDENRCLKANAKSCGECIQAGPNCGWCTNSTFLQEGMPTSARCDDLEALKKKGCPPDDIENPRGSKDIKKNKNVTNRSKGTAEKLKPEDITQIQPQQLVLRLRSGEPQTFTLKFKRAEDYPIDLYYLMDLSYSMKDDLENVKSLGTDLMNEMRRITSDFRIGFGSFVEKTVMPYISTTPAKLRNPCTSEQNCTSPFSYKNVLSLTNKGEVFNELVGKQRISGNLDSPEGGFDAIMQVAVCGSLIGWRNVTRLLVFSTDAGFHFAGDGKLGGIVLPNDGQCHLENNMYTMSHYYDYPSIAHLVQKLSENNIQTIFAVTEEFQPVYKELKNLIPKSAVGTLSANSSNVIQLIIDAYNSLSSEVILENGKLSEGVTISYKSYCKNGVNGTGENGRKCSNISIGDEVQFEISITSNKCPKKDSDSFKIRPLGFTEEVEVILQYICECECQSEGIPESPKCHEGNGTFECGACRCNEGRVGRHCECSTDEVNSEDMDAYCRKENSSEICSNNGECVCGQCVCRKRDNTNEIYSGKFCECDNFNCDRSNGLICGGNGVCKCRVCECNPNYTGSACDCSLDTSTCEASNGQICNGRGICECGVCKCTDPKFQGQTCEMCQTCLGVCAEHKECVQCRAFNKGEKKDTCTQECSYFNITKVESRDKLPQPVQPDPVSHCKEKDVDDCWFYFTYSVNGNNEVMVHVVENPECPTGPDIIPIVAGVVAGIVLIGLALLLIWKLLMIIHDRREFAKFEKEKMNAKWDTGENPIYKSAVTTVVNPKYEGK
UniProt P35968, residues 20-1356: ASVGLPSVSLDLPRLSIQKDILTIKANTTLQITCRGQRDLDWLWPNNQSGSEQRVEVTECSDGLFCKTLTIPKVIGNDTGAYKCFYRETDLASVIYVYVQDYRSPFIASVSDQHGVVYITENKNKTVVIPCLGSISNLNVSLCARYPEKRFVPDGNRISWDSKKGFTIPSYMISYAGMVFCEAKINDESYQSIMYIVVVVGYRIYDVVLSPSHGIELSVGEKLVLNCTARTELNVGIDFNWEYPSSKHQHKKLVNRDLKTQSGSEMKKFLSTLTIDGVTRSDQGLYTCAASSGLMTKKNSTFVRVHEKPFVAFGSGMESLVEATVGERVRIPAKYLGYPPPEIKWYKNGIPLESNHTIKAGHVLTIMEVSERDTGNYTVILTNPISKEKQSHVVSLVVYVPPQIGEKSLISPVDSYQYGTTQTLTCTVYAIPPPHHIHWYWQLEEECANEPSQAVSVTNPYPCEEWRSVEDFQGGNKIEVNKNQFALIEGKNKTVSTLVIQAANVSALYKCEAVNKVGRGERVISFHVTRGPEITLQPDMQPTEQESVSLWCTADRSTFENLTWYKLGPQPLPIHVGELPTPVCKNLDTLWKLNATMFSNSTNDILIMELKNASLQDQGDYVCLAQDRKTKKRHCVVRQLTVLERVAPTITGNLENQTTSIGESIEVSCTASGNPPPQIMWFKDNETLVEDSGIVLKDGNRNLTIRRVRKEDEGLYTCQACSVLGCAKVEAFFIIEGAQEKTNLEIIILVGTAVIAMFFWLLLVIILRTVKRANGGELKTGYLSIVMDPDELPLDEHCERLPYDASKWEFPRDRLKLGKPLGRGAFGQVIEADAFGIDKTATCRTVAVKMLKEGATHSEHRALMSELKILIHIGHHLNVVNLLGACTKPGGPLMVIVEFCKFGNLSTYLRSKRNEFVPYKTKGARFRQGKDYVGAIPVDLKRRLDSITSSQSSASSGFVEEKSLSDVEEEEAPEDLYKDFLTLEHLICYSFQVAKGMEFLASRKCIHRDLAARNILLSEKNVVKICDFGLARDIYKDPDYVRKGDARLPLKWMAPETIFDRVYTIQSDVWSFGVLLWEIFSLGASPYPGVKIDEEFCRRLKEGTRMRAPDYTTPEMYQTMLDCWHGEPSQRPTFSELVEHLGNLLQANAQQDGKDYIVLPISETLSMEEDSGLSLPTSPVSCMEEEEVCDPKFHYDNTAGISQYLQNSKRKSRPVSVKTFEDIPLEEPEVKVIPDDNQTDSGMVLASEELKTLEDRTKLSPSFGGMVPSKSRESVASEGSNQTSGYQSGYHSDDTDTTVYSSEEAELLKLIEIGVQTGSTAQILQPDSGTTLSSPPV

Measured: binding

recombinant GST-tagged Sdc1 ectodomain (GST-S1ED) (from UniProt P08515 1-218; P18828 23-255)
binds: [1] | [2] | [3] | [4]

From patent publication US20160256523A1
